Measured values as given in patent US20170175077A1, “CULTURE MEDIUM COMPOSITION AND METHOD OF CULTURING CELL OR TISSUE USING THEREOF” (Nissan Chemical Industries, Ltd., priority 2012, published 2017).

Test system: HeLa cell spheres
Assay: Cell suspension test of HeLa cell spheres
Parameters: species or system human
Conditions: 37° C., 1 hr

collagen
HeLa cell suspension/sedimentation (0.01% (w/v) in DMEM/F-12 medium): sedimentation
HeLa cell suspension/sedimentation (0.05% (w/v) in DMEM/F-12 medium): suspension
HeLa cell suspension/sedimentation (0.1% (w/v) in DMEM/F-12 medium): suspension
HeLa cell suspension/sedimentation (0.2% (w/v) in DMEM/F-12 medium): suspension
